Experimental data published in the supplement of paper PMC10849652.
This is one part of the list.

By UniProt entry, the sequences of proteins in these tests, tags left out. Where a name states a change or a piece, a line headed by the entry shows the natural chain unless it says otherwise.
UniProt P07099: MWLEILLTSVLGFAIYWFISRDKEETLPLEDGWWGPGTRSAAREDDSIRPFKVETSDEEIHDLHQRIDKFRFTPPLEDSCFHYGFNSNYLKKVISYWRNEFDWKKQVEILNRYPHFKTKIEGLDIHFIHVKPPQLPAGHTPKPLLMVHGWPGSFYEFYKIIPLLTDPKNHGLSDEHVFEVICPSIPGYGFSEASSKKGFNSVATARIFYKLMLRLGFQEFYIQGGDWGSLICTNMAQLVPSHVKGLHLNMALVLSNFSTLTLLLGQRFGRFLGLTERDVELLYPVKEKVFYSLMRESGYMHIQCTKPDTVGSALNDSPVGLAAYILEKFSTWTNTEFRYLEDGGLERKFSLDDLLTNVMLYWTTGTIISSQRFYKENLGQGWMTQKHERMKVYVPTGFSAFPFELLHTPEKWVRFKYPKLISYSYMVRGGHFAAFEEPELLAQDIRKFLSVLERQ
UniProt Q96RT1: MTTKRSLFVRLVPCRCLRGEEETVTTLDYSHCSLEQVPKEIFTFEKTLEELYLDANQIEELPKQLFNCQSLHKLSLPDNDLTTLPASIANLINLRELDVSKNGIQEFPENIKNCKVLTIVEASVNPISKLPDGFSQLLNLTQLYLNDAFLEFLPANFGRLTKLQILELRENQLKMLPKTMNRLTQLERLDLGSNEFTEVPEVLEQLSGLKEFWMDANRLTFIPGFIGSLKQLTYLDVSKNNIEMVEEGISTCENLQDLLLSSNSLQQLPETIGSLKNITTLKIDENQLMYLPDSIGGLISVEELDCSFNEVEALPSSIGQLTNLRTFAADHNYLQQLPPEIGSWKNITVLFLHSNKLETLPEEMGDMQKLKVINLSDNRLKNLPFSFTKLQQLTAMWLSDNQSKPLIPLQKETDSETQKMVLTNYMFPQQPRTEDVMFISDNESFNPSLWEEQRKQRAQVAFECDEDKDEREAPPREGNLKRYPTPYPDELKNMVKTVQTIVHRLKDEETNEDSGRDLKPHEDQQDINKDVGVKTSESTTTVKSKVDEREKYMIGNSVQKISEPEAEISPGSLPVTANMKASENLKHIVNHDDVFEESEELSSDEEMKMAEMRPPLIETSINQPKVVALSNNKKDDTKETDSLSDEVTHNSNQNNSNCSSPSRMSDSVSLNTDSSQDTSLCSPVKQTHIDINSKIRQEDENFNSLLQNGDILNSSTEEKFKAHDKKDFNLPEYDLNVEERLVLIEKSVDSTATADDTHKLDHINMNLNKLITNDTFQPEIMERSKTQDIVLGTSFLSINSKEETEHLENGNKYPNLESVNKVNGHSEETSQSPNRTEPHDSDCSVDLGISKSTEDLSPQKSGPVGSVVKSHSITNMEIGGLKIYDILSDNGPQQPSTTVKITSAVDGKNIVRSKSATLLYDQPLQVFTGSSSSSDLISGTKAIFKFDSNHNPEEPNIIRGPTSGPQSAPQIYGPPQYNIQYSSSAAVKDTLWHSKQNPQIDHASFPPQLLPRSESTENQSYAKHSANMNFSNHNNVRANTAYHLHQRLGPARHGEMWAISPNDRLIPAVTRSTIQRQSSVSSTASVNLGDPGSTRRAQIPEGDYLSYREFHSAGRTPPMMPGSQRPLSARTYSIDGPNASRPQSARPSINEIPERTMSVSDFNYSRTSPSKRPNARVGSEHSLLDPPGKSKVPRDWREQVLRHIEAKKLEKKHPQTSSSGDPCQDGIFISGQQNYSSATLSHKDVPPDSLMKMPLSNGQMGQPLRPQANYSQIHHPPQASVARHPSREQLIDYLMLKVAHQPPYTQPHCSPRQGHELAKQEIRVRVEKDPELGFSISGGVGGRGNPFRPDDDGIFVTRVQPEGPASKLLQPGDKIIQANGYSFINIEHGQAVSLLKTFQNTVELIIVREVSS
UniProt O95163: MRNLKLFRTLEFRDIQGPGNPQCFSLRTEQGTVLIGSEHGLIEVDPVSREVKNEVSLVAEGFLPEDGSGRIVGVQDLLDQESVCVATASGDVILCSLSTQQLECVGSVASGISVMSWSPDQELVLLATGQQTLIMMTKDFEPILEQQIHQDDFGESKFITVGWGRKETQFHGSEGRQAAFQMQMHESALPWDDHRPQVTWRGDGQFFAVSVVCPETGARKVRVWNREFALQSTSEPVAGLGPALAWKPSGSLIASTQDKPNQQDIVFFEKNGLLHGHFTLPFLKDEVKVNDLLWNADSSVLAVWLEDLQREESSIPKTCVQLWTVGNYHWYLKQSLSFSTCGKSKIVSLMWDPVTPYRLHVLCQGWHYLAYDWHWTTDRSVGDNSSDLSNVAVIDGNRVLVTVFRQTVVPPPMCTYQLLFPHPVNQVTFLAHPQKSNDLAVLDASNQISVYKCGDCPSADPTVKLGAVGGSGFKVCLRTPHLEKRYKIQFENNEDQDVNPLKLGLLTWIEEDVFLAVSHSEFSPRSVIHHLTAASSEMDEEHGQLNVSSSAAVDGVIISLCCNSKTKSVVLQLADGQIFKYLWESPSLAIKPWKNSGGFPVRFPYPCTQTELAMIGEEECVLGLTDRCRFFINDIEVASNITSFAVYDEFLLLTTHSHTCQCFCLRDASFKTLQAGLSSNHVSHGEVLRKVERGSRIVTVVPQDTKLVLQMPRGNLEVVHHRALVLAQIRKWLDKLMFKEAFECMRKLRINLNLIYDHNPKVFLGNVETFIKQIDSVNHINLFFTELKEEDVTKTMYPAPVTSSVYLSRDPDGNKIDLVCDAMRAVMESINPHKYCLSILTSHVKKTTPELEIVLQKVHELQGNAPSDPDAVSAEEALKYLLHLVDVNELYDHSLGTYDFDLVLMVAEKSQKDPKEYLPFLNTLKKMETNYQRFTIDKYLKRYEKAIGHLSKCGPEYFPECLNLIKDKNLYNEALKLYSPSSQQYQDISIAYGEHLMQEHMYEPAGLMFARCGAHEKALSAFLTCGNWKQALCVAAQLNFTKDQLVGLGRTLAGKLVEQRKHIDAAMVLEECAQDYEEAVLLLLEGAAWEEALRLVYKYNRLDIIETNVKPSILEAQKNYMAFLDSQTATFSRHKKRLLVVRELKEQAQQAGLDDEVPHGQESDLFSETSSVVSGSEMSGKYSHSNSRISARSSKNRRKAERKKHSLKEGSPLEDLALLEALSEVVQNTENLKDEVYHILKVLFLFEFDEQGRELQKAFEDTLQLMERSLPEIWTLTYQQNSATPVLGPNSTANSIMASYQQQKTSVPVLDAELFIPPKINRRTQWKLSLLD
UniProt Q2NKX8: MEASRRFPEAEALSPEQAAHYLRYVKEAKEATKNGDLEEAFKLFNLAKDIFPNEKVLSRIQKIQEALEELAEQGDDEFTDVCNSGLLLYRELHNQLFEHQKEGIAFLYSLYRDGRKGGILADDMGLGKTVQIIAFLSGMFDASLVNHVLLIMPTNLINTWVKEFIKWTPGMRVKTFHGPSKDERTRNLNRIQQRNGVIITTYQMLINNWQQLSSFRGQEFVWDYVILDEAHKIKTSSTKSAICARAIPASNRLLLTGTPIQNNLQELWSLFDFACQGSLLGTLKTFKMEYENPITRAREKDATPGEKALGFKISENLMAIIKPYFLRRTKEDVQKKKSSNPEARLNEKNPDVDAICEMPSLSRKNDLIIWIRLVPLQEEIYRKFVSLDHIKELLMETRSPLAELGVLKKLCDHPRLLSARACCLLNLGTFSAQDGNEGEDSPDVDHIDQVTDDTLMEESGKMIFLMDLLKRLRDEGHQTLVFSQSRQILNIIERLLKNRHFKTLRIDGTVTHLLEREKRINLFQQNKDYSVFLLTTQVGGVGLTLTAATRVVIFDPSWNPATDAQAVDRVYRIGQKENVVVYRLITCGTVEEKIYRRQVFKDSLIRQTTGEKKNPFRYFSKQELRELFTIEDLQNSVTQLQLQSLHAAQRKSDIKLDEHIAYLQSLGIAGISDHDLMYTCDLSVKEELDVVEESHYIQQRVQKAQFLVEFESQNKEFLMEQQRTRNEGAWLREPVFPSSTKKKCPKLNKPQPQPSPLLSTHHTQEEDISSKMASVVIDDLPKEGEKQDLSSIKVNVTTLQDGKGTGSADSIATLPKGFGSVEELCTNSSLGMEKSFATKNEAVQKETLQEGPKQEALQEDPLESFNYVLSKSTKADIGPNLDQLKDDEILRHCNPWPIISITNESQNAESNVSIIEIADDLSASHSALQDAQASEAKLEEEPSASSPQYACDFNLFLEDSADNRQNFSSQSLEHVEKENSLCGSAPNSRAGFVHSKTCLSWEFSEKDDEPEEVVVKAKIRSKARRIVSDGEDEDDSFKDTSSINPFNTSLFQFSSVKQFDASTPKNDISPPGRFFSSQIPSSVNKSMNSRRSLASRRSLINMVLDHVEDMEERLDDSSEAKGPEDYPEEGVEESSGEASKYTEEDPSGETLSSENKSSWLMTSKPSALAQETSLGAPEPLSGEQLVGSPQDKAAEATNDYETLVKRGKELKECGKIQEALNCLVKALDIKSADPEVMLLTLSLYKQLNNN
UniProt Q5J8M3, whole entry, looked up: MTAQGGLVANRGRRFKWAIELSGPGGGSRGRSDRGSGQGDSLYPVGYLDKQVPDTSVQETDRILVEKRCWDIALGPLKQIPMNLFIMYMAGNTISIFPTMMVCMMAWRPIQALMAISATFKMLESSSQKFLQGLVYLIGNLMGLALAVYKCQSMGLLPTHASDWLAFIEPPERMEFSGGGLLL
UniProt P34913, whole entry, looked up: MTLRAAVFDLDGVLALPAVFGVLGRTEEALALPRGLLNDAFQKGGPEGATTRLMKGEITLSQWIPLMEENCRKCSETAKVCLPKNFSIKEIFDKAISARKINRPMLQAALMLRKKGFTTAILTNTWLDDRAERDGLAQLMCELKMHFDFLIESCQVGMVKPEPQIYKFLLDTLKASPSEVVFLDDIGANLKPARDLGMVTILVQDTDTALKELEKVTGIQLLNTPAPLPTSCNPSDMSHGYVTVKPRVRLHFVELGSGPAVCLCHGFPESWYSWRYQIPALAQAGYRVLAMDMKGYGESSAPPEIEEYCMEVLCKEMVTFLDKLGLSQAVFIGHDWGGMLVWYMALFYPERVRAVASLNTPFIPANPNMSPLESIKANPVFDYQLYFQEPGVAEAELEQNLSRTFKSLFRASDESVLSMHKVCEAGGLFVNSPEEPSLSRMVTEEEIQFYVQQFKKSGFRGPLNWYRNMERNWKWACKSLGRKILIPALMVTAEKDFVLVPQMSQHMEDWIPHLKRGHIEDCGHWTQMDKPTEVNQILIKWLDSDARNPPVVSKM
UniProt P20042, whole entry, looked up: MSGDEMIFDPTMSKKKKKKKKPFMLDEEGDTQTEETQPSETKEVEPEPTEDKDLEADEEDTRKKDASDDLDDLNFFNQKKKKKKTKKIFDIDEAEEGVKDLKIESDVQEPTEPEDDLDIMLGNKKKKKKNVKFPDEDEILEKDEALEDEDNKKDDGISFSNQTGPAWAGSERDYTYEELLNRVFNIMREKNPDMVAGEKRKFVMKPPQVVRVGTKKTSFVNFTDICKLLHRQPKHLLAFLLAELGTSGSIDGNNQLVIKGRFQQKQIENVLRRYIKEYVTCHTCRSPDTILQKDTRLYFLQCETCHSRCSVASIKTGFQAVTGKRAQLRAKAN
UniProt O75822, whole entry, looked up: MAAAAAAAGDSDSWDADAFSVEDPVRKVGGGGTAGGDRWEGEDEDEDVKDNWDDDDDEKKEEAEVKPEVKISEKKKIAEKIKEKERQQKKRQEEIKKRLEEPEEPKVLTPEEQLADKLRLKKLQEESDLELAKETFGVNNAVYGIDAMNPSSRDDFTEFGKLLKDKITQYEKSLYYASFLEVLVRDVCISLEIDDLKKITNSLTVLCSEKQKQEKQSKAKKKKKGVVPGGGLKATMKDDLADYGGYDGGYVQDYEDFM
UniProt O75821, whole entry, looked up: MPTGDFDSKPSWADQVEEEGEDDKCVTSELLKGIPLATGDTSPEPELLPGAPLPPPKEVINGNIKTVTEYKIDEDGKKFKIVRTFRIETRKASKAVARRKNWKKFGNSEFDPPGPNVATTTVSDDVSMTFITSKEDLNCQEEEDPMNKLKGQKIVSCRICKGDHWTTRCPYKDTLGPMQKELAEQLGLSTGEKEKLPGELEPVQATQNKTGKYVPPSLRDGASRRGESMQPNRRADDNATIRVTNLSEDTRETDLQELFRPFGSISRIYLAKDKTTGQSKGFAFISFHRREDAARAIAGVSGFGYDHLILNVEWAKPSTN
UniProt Q7L2H7, whole entry, looked up: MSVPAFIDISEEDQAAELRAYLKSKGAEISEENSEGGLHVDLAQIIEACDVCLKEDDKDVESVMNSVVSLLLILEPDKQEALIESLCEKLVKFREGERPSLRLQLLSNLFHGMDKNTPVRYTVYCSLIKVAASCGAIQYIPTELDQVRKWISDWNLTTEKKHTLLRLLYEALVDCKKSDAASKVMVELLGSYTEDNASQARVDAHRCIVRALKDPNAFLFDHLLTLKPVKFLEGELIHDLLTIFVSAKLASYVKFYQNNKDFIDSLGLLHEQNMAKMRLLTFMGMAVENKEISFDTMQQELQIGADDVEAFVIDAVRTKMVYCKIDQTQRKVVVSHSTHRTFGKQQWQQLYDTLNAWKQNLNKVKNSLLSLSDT
UniProt Q9NPA8: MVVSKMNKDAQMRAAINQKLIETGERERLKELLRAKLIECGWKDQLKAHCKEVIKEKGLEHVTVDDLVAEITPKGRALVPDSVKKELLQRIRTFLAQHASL

Compound: NCC(=O)Nc1ccc(-n2nc(C(F)(F)F)cc2-c2ccc3c(ccc4ccccc43)c2)cc1
Assay: log2 fold change, soluble protein after heating vs DMSO (PISA); higher = thermal stabilisation; K562 lysate, 10 uM; active = over 0.2 and 3.5 SD of the protein, either way, in both replicates (recomputed)
In short: (§1)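 Soluble protein was defined as the supernatant remaining after 21,000xg for 90 min, following pooling of heated aliquots and adjustment to 0.5% NP-40 at 4°C. Before that, crude K562 extract at 1 mg/mL protein in PBS pH 7.4 with 1 mM MgCl2 was treated with 10 μM compound for 30 min and heated for 3 min across 48°C-58°C. Quantification used TMTpro 16plex LC-MS/MS with channel sums equalised, and values are log-two fold changes in thermal stability relative to solvent controls from duplicates.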

| Target | log2 fold change |
| --- | --- |
| EPN1 (UniProt Q9Y6I3) | inactive: -0.004 |
| EMC3 (UniProt Q9P0I2) | inactive: 0.025 |
| EIF3K (UniProt Q9UBQ5) | inactive: -0.072 |
| EMC1 (UniProt Q8N766) | inactive: 0.001 |
| EMC10 (UniProt Q5UCC4) | inactive: 0.004 |
| ELP4 (UniProt Q96EB1) | inactive: -0.023 |
| EPB41L2 (UniProt O43491) | inactive: 0.01 |
| EIF2B4 (UniProt Q9UI10) | inactive: 0.028 |
| EPHX1 (UniProt P07099) | inactive: -0.001 |
| ERGIC2 (UniProt Q96RQ1) | inactive: 0.004 |
| ERBIN isoform 8 (UniProt Q96RT1) | inactive: -0.016 |
| EIF3A (UniProt Q14152) | inactive: 0.014 |
| ELP1 (UniProt O95163) | inactive: 0.029 |
| ELP5 isoform 4 (UniProt Q8TE02) | inactive: 0.009 |
| EMP3 (UniProt P54852) | inactive: 0.013 |
| ELOB (UniProt Q15370) | inactive: -0.108 |
| EIF2B5 (UniProt Q13144) | inactive: 0.013 |
| ELAC2 (UniProt Q9BQ52) | inactive: 0.014 |

| Target | log2 fold change |
| --- | --- |
| ERCC6L (UniProt Q2NKX8) | inactive: -0.003 |
| EPS15L1 isoform 2 (UniProt Q9UBC2) | inactive: 0.004 |
| EMC4 (UniProt Q5J8M3) | inactive: -0.055 |
| EIF3I (UniProt Q13347) | inactive: 0.022 |
| EIF3C (UniProt Q99613) | inactive: -0.004 |
| ELL (UniProt P55199) | inactive: 0.12 |
| EPHX2 (UniProt P34913) | inactive: 0.002 |
| ENTPD5 (UniProt O75356) | inactive: -0.041 |
| EIF2S2 (UniProt P20042) | inactive: 0.008 |
| EIF3J (UniProt O75822) | inactive: 0.017 |
| ENSA isoform 3 (UniProt O43768) | inactive: -0.029 |
| EIF3G (UniProt O75821) | inactive: 0.02 |
| ERCC2 (UniProt P18074) | inactive: -0.024 |
| EIF4G1 (UniProt Q04637) | inactive: 0.006 |
| EIF3M (UniProt Q7L2H7) | inactive: -0.006 |
| EPB41L1 (UniProt Q9H4G0) | inactive: 0.044 |
| ENY2 (UniProt Q9NPA8) | inactive: -0.066 |

Compound: O=C(CCCCCCC(=O)Nc1ccccc1)NO [vorinostat]
Assay: as above
In short: as §1

| Target | log2 fold change |
| --- | --- |
| EPN1 (UniProt Q9Y6I3) | inactive: 0.105 |
| EMC3 (UniProt Q9P0I2) | inactive: 0.109 |
| EIF3K (UniProt Q9UBQ5) | inactive: -0.018 |
| EMC1 (UniProt Q8N766) | inactive: 0.092 |
| EMC10 (UniProt Q5UCC4) | inactive: 0.149 |
| ELP4 (UniProt Q96EB1) | inactive: -0.18 |
| EPB41L2 (UniProt O43491) | inactive: 0.056 |
| EIF2B4 (UniProt Q9UI10) | inactive: -0.135 |
| EPHX1 (UniProt P07099) | inactive: 0.129 |
| ERGIC2 (UniProt Q96RQ1) | inactive: 0.123 |
| ERBIN isoform 8 (UniProt Q96RT1) | inactive: -0.008 |
| EIF3A (UniProt Q14152) | inactive: -0.06 |
| ELP1 (UniProt O95163) | inactive: -0.029 |
| ELP5 isoform 4 (UniProt Q8TE02) | inactive: -0.141 |
| EMP3 (UniProt P54852) | inactive: -0.022 |
| ELOB (UniProt Q15370) | inactive: 0.077 |
| EIF2B5 (UniProt Q13144) | active: -0.227 |
| ELAC2 (UniProt Q9BQ52) | inactive: 0.091 |

| Target | log2 fold change |
| --- | --- |
| ERCC6L (UniProt Q2NKX8) | inactive: -0.1 |
| EPS15L1 isoform 2 (UniProt Q9UBC2) | inactive: 0.108 |
| EMC4 (UniProt Q5J8M3) | inactive: -0.037 |
| EIF3I (UniProt Q13347) | active: -0.316 |
| EIF3C (UniProt Q99613) | inactive: -0.167 |
| ELL (UniProt P55199) | inactive: -0.153 |
| EPHX2 (UniProt P34913) | active: 0.243 |
| ENTPD5 (UniProt O75356) | inactive: 0.045 |
| EIF2S2 (UniProt P20042) | inactive: 0.096 |
| EIF3J (UniProt O75822) | inactive: 0.075 |
| ENSA isoform 3 (UniProt O43768) | inactive: 0.144 |
| EIF3G (UniProt O75821) | inactive: -0.103 |
| ERCC2 (UniProt P18074) | inactive: -0.179 |
| EIF4G1 (UniProt Q04637) | inactive: -0.202 |
| EIF3M (UniProt Q7L2H7) | inactive: -0.101 |
| EPB41L1 (UniProt Q9H4G0) | inactive: 0.028 |
| ENY2 (UniProt Q9NPA8) | inactive: 0.118 |
